The chains behind the UniProt entries cited, without tags or fusion partners.
UniProt P61006: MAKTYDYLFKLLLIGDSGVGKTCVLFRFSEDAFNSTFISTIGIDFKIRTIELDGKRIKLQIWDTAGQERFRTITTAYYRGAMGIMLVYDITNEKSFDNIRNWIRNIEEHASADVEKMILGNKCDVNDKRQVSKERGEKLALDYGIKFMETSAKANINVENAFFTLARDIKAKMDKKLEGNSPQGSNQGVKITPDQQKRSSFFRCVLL
UniProt P61026: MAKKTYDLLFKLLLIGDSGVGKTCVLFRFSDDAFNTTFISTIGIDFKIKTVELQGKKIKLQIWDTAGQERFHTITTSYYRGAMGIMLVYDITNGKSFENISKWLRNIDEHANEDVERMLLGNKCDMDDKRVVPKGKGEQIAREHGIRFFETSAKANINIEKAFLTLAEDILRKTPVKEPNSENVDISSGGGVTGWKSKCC

In paper PMC8339009:

Molecular target: T1, SopD-FLAGBirA* (S. Typhimurium SL1344) (UniProt P40722)
T1 sequence: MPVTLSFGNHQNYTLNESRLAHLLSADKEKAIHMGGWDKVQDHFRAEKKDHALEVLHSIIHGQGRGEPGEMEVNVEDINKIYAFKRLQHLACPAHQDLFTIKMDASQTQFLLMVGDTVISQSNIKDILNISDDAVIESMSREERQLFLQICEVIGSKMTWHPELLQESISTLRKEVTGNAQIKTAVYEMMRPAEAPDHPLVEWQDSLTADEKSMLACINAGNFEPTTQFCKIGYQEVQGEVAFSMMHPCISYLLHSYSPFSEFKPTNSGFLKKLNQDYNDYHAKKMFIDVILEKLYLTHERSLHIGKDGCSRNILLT
Experiment: affinity purification with mass spectrometry; anti-FLAG M2 agarose beads on lysate of Flp-In T-REx 293 cells stably expressing SopD-FLAGBirA*; lysis buffer 50 mM HEPES-NaOH pH 8.0, 100 mM KCl, 2 mM EDTA, 0.1% NP40, 10% glycerol; 2 h at 4 °C; controls: cells expressing FlagBirA* alone; SAINT, high confidence BFDR≤0.01

| Substance | binding |
| --- | --- |
| Rab8A (endogenous) (from UniProt P61006 1-207) | binds |
| Rab10 (endogenous) (from UniProt P61026 1-200) | binds |

Results are given in words; binding and its absence hold for the method and conditions named. In cells and extracts the contact can be indirect. Here binding means that the protein was enriched with, or labelled near, the bait; the list need not be complete. Tags and fused reporters may be left off the sequences shown.
